Source: the supplement of paper PMC12823440, “Inhibitors supercharge kinase turnover through native proteolytic circuits” (Nature, 2025)
The list shows a part of the results. The calls rarely recur for the same compound in another form.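 Kinases were expressed as nanoluciferase fusions in K562 cells and luminescence was read every 4 h between 2 and 18 h as percent of control, DMSO set to 100% and a positive control to 0%. A time point counts as decreased when the signal drops significantly (2 sigma). The hit call is the authors' own, does not follow from the count of time points alone, and its rule is not shown.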

Sequences of proteins named here, by UniProt entry; tags and fusion partners are left off. A change or cut given only in a name is not applied to a line headed by its entry.
UniProt P31152, whole entry: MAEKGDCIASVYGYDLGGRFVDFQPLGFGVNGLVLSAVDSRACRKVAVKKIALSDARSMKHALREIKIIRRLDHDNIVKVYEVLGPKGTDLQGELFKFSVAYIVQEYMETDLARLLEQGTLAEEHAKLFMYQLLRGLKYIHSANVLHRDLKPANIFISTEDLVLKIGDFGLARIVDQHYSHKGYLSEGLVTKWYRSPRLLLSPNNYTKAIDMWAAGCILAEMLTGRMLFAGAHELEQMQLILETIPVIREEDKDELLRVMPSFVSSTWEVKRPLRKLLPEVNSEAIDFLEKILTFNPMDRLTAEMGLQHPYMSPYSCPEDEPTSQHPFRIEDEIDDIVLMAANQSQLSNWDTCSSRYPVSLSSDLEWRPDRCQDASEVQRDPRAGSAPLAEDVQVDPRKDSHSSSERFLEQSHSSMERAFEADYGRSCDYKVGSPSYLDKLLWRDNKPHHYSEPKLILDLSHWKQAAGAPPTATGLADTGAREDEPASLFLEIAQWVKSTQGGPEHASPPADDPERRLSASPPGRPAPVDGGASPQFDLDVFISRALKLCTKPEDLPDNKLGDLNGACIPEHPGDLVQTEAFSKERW
UniProt P49137, whole entry, looked up: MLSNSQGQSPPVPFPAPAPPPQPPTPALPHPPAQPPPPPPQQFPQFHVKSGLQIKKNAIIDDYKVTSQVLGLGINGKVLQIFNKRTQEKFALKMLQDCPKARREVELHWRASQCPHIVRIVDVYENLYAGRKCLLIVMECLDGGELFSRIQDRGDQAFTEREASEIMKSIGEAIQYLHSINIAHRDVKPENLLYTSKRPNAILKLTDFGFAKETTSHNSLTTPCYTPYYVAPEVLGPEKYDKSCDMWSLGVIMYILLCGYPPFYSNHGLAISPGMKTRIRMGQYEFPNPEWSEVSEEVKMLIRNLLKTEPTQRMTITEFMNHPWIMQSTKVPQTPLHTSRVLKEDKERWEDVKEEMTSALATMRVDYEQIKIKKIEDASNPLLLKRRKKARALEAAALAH
UniProt Q96KB5: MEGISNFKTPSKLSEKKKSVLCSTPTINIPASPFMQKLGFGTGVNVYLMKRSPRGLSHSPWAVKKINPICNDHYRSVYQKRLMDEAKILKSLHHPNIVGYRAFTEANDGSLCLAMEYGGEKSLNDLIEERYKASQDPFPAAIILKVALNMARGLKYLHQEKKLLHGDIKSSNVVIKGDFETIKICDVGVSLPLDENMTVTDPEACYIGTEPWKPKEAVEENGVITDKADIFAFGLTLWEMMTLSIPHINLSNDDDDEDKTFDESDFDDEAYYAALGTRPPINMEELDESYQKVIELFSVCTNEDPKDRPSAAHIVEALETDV
UniProt P42356, whole entry, looked up: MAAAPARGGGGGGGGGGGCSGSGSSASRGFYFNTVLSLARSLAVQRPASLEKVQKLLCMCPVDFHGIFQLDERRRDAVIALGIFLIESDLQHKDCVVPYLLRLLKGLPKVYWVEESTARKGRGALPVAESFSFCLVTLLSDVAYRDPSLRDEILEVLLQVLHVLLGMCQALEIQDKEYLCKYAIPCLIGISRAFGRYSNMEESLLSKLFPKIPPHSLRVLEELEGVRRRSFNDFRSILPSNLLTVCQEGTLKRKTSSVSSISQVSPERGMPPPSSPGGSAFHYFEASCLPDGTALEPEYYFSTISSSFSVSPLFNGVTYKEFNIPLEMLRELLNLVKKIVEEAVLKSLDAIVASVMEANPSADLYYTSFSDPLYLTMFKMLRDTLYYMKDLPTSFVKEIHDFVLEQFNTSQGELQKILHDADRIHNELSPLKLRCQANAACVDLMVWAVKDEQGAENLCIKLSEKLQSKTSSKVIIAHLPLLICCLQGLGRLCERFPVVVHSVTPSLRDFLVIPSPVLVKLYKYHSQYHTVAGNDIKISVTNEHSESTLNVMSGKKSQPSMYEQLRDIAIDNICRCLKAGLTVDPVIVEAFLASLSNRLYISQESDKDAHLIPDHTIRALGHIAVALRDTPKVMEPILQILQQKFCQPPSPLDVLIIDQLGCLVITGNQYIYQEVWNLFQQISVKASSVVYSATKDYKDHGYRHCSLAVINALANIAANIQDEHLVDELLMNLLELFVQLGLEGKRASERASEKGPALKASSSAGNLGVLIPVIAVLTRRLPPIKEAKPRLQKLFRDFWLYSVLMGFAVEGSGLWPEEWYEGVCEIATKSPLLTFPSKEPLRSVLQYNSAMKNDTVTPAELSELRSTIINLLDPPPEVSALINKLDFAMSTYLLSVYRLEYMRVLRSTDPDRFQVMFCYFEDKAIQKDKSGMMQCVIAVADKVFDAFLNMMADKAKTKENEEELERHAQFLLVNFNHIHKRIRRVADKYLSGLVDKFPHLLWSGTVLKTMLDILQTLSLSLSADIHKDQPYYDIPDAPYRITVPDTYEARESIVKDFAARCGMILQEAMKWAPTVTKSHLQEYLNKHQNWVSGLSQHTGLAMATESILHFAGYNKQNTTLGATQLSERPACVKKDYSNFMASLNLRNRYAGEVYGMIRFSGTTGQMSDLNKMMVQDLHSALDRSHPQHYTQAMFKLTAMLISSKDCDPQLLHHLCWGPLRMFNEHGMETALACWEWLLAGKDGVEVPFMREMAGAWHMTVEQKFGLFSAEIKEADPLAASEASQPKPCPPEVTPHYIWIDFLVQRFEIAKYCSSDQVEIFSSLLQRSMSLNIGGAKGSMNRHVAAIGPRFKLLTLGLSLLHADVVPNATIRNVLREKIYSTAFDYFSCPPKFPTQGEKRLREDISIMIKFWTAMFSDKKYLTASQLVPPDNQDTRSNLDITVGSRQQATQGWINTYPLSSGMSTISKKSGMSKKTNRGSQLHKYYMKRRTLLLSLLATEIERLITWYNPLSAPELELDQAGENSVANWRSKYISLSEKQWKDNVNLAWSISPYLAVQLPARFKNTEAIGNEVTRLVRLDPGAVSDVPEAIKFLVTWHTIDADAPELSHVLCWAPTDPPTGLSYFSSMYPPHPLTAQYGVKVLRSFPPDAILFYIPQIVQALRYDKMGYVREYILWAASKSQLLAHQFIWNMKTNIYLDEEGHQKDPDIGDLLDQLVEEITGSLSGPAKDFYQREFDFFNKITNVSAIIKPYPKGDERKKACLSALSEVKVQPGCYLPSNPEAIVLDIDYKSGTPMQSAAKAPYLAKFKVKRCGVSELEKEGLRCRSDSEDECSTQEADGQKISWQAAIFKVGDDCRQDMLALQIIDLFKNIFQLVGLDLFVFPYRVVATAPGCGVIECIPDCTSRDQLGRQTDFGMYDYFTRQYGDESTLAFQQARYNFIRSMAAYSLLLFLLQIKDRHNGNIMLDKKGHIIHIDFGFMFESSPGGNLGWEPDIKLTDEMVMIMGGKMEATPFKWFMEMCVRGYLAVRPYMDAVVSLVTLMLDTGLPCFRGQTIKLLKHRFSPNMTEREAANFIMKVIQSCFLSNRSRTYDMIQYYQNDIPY
UniProt Q9UBF8: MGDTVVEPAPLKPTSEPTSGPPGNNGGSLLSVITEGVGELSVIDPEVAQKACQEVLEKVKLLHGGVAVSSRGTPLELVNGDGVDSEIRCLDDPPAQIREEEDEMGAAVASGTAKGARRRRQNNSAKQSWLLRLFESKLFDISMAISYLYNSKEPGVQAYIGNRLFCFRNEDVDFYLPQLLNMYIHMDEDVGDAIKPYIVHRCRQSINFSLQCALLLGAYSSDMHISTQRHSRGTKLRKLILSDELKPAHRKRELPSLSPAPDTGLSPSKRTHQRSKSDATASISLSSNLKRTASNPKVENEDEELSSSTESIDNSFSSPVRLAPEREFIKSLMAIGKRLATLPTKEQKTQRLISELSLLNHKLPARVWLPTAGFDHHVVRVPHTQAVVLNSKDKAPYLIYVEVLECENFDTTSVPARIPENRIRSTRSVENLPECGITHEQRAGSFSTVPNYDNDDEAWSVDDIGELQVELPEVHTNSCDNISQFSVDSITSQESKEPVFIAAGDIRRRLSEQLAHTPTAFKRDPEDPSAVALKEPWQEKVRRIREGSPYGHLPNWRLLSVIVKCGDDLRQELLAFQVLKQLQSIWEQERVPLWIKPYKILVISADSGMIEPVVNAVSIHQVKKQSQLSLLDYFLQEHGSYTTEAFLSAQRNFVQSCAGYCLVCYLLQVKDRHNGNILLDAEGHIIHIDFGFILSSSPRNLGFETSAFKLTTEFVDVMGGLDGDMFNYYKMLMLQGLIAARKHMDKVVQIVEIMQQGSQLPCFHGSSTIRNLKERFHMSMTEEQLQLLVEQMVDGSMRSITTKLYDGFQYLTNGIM
UniProt P53350, whole entry: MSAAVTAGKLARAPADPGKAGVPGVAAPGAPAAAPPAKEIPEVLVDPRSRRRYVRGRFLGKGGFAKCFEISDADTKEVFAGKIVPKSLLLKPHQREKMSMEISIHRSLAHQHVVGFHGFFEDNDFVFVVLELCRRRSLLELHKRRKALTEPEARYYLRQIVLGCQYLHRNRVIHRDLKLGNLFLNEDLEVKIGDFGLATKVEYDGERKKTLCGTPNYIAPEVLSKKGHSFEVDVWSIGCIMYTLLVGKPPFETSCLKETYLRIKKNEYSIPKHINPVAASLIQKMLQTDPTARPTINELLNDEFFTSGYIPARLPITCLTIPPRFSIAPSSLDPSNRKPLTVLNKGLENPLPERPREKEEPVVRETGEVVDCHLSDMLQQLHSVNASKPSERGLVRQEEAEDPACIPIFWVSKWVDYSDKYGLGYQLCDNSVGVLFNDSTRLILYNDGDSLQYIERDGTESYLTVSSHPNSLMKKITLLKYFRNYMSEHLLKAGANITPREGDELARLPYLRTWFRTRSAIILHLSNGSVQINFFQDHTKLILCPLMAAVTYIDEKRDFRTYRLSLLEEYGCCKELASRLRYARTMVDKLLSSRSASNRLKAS
UniProt Q14289, whole entry, looked up: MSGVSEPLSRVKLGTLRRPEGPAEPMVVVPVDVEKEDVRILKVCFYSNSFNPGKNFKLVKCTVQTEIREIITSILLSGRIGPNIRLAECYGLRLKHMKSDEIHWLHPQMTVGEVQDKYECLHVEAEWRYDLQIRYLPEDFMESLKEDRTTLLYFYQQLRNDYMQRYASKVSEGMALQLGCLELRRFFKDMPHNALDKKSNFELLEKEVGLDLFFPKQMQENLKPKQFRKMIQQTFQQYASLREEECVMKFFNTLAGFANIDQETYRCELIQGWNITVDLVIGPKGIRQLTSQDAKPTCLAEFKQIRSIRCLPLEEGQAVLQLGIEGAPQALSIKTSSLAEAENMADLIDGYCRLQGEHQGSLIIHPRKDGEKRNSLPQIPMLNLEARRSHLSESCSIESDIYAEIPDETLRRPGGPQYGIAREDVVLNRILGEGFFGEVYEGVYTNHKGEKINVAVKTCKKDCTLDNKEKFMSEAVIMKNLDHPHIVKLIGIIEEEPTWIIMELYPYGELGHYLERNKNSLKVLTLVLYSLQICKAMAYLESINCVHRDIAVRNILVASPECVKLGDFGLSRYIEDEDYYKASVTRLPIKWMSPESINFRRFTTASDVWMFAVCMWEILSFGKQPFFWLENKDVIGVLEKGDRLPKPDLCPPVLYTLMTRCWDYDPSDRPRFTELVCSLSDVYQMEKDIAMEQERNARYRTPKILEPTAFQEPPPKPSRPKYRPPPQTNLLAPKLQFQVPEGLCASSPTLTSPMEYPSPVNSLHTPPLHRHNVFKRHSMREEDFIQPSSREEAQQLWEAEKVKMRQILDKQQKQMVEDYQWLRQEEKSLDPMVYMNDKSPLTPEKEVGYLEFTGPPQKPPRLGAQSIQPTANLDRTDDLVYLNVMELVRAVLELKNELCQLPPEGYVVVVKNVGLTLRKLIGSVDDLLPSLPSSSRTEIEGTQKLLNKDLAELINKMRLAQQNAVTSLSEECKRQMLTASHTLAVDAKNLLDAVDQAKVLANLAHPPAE

How the values were obtained:
Assay in all cases: kinase-Nluc reporter destabilization hit call (1 = scored as downregulated) (binary); higher = compound decreases kinase abundance
Settings in all cases: K562; 2-18 h
MAPK1 = MAPK1 (UniProt P28482)
MAPK4 = MAPK4 (UniProt P31152)
MAPKAPK2 = MAPKAPK2 (UniProt P49137)
MKNK1 = MKNK1 (UniProt Q9BUB5)
NTRK2 = NTRK2 (UniProt Q16620)
NTRK3 = NTRK3 (UniProt Q16288)
PAK4 = PAK4 (UniProt O96013)
PBK = PBK (UniProt Q96KB5)
PDGFRB = PDGFRB (UniProt P09619)
PDK1 = PDK1 (UniProt Q15118)
PDPK1 = PDPK1 (UniProt O15530)
PIK4CA = PIK4CA (UniProt P42356)
PIK4CB = PIK4CB (UniProt Q9UBF8)
PLK1 = PLK1 (UniProt P53350)
PRKAA1 = PRKAA1 (UniProt Q13131)
PRKCA = PRKCA (UniProt P17252)
PTK2 = PTK2 (UniProt Q05397)
PTK2B = PTK2B (UniProt Q14289)
RAF1 = RAF1 (UniProt P04049)
[1] = target: RAF1_S257L (clone: RAF1_mut) (UniProt P04049)

Measured: kinase-Nluc reporter destabilization hit call

CCn1c(=O)c(-c2ccc(-c3cncc(C)n3)cc2Cl)cc2cnc(NCCC3CCN(C)CC3)nc21 (10 µM)
inactive: MAPK1 = 0 | MAPK4 = 0 | MAPKAPK2 = 0 | MKNK1 = 0 | NTRK2 = 0 | NTRK3 = 0 | PAK4 = 0 | PBK 0 | PDGFRB 0 | PDK1 = 0 | PDPK1 = 0 | PIK4CA 0 | PIK4CB 0 | PLK1 = 0 | PRKAA1 = 0 | PRKCA 0 | PTK2 = 0 | PTK2B 0 | RAF1 = 0 | [1] 0

O=C(Nc1cc(Oc2cc(F)c(NC(=O)C3(C(=O)Nc4ccc(F)cc4)CC3)cc2F)ccn1)C1CC1 [Altiratinib] (10 µM)
active: PTK2 = 1
inactive: MAPK1 = 0 | MAPK4 = 0 | MAPKAPK2 = 0 | MKNK1 = 0 | NTRK2 = 0 | NTRK3 = 0 | PAK4 = 0 | PBK 0 | PDGFRB 0 | PDK1 = 0 | PDPK1 = 0 | PIK4CA 0 | PIK4CB 0 | PLK1 = 0 | PRKAA1 = 0 | PRKCA 0 | PTK2B 0 | RAF1 = 0 | [1] 0

COc1cc2ncnc(Nc3cccc(Cl)c3)c2cc1OC (10 µM)
inactive: MAPK1 = 0 | MAPK4 = 0 | MAPKAPK2 = 0 | MKNK1 = 0 | NTRK2 = 0 | NTRK3 = 0 | PAK4 = 0 | PBK 0 | PDGFRB 0 | PDK1 = 0 | PDPK1 = 0 | PIK4CA 0 | PIK4CB 0 | PLK1 = 0 | PRKAA1 = 0 | PRKCA 0 | PTK2 = 0 | PTK2B 0 | RAF1 = 0 | [1] 0

CS(=O)(=O)c1ccc(-c2cnc(N)c(C(=O)Nc3ccccc3)n2)cc1 (10 µM)
inactive: MAPK1 = 0 | MAPK4 = 0 | MAPKAPK2 = 0 | MKNK1 = 0 | NTRK2 = 0 | NTRK3 = 0 | PAK4 = 0 | PBK 0 | PDGFRB 0 | PDK1 = 0 | PDPK1 = 0 | PIK4CA 0 | PIK4CB 0 | PLK1 = 0 | PRKAA1 = 0 | PRKCA 0 | PTK2 = 0 | PTK2B 0 | RAF1 = 0 | [1] 0

COC1(c2sc3c(N4CCOCC4)nc(-c4cnc(N)nc4)nc3c2C)COC1 (2.5 µM)
inactive: MAPK1 = 0 | MAPK4 = 0 | MAPKAPK2 = 0 | MKNK1 = 0 | NTRK2 = 0 | NTRK3 = 0 | PAK4 = 0 | PBK 0 | PDGFRB 0 | PDK1 = 0 | PDPK1 = 0 | PIK4CA 0 | PIK4CB 0 | PLK1 = 0 | PRKAA1 = 0 | PRKCA 0 | PTK2 = 0 | PTK2B 0 | RAF1 = 0 | [1] 0

Cc1c(NC(=O)OC[C@@H]2COCCN2)cn2ncnc(Nc3ccc4c(cnn4Cc4cccc(F)c4)c3)c12 (10 µM)
inactive: MAPK1 = 0 | MAPK4 = 0 | MAPKAPK2 = 0 | MKNK1 = 0 | NTRK2 = 0 | NTRK3 = 0 | PAK4 = 0 | PBK 0 | PDGFRB 0 | PDK1 = 0 | PDPK1 = 0 | PIK4CA 0 | PIK4CB 0 | PLK1 = 0 | PRKAA1 = 0 | PRKCA 0 | PTK2 = 0 | PTK2B 0 | RAF1 = 0 | [1] 0

C[C@@H]1C(=O)O[C@H](C)[C@H]1C[C@@H](O)[C@](C)(O)[C@H]1CC[C@@]2(O)C3=CC(=O)[C@@H]4C[C@@H](O)[C@@H](O)C[C@]4(C)[C@H]3CC[C@]12C [Cyasterone] (10 µM)
inactive: MAPK1 = 0 | MAPK4 = 0 | MAPKAPK2 = 0 | MKNK1 = 0 | NTRK2 = 0 | NTRK3 = 0 | PAK4 = 0 | PBK 0 | PDGFRB 0 | PDK1 = 0 | PDPK1 = 0 | PIK4CA 0 | PIK4CB 0 | PLK1 = 0 | PRKAA1 = 0 | PRKCA 0 | PTK2 = 0 | PTK2B 0 | RAF1 = 0 | [1] 0

Nc1ncnc2c1ncn2[C@@H]1O[C@H](CO)C[C@H]1O [Cordycepin] (10 µM)
inactive: MAPK1 = 0 | MAPK4 = 0 | MAPKAPK2 = 0 | MKNK1 = 0 | NTRK2 = 0 | NTRK3 = 0 | PAK4 = 0 | PBK 0 | PDGFRB 0 | PDK1 = 0 | PDPK1 = 0 | PIK4CA 0 | PIK4CB 0 | PLK1 = 0 | PRKAA1 = 0 | PRKCA 0 | PTK2 = 0 | PTK2B 0 | RAF1 = 0 | [1] 0

Cc1c(CN2CCN(S(C)(=O)=O)CC2)sc2c(N3CCOCC3)nc(-c3cnc(N)nc3)nc12 (2.5 µM)
inactive: MAPK1 = 0 | MAPK4 = 0 | MAPKAPK2 = 0 | MKNK1 = 0 | NTRK2 = 0 | NTRK3 = 0 | PAK4 = 0 | PBK 0 | PDGFRB 0 | PDK1 = 0 | PDPK1 = 0 | PIK4CA 0 | PIK4CB 0 | PLK1 = 0 | PRKAA1 = 0 | PRKCA 0 | PTK2 = 0 | PTK2B 0 | RAF1 = 0 | [1] 0

CNC(=O)Nc1ccc(-c2cc(-c3ccnc(Nc4ccc(C)c(S(=O)(=O)N(C)C)c4)n3)ccn2)cc1 [hSMG-1 inhibitor 11e] (2.5 µM)
inactive: MAPK1 = 0 | MAPK4 = 0 | MAPKAPK2 = 0 | MKNK1 = 0 | NTRK2 = 0 | NTRK3 = 0 | PAK4 = 0 | PBK 0 | PDGFRB 0 | PDK1 = 0 | PDPK1 = 0 | PIK4CA 0 | PIK4CB 0 | PLK1 = 0 | PRKAA1 = 0 | PRKCA 0 | PTK2 = 0 | PTK2B 0 | RAF1 = 0 | [1] 0

CN1C(=O)C(Cc2c[nH]c3ccccc23)NC1=S (stereo not given) [Necrostatin-1] (10 µM)
inactive: MAPK1 = 0 | MAPK4 = 0 | MAPKAPK2 = 0 | MKNK1 = 0 | NTRK2 = 0 | NTRK3 = 0 | PAK4 = 0 | PBK 0 | PDGFRB 0 | PDK1 = 0 | PDPK1 = 0 | PIK4CA 0 | PIK4CB 0 | PLK1 = 0 | PRKAA1 = 0 | PRKCA 0 | PTK2 = 0 | PTK2B 0 | RAF1 = 0 | [1] 0

CN(CC(=O)N(Cc1ccc(C2CCCCC2)cc1)c1ccc(C(=O)O)cc1)S(=O)(=O)c1c(F)c(F)c(F)c(F)c1F (2.5 µM)
active: RAF1 = 1
inactive: MAPK1 = 0 | MAPK4 = 0 | MAPKAPK2 = 0 | MKNK1 = 0 | NTRK2 = 0 | NTRK3 = 0 | PAK4 = 0 | PBK 0 | PDGFRB 0 | PDK1 = 0 | PDPK1 = 0 | PIK4CA 0 | PIK4CB 0 | PLK1 = 0 | PRKAA1 = 0 | PRKCA 0 | PTK2 = 0 | PTK2B 0 | [1] 0

Cc1ccc(-c2c(C(=O)CCl)n(CCCO)c3ncnc(N)c23)cc1 (10 µM)
inactive: MAPK1 = 0 | MAPK4 = 0 | MAPKAPK2 = 0 | MKNK1 = 0 | NTRK2 = 0 | NTRK3 = 0 | PAK4 = 0 | PBK 0 | PDGFRB 0 | PDK1 = 0 | PDPK1 = 0 | PIK4CA 0 | PIK4CB 0 | PLK1 = 0 | PRKAA1 = 0 | PRKCA 0 | PTK2 = 0 | PTK2B 0 | RAF1 = 0 | [1] 0

O=C(Nc1ccc2[nH]nc(-c3ccncc3)c2c1)[C@@H]1CCN(CC(=O)N2CCN(c3ccc(-c4ncccn4)cc3)CC2)C1 (2.5 µM)
inactive: MAPK1 = 0 | MAPK4 = 0 | MAPKAPK2 = 0 | MKNK1 = 0 | NTRK2 = 0 | NTRK3 = 0 | PAK4 = 0 | PBK 0 | PDGFRB 0 | PDK1 = 0 | PDPK1 = 0 | PIK4CA 0 | PIK4CB 0 | PLK1 = 0 | PRKAA1 = 0 | PRKCA 0 | PTK2 = 0 | PTK2B 0 | RAF1 = 0 | [1] 0

Retrieved by compound from above (two):
CN(CC(=O)N(Cc1ccc(C2CCCCC2)cc1)c1ccc(C(=O)O)cc1)S(=O)(=O)c1c(F)c(F)c(F)c(F)c1F (2.5 µM)
active: RAF1 = 1
inactive: MAPK1 = 0 | MAPK4 = 0 | MAPKAPK2 = 0 | MKNK1 = 0 | NTRK2 = 0 | NTRK3 = 0 | PAK4 = 0 | PBK 0 | PDGFRB 0 | PDK1 = 0 | PDPK1 = 0 | PIK4CA 0 | PIK4CB 0 | PLK1 = 0 | PRKAA1 = 0 | PRKCA 0 | PTK2 = 0 | PTK2B 0 | [1] 0

Cc1ccc(-c2c(C(=O)CCl)n(CCCO)c3ncnc(N)c23)cc1 (10 µM)
inactive: MAPK1 = 0 | MAPK4 = 0 | MAPKAPK2 = 0 | MKNK1 = 0 | NTRK2 = 0 | NTRK3 = 0 | PAK4 = 0 | PBK 0 | PDGFRB 0 | PDK1 = 0 | PDPK1 = 0 | PIK4CA 0 | PIK4CB 0 | PLK1 = 0 | PRKAA1 = 0 | PRKCA 0 | PTK2 = 0 | PTK2B 0 | RAF1 = 0 | [1] 0

(list continues)

C[C@@]1(O)CCC[C@H]1n1c(=O)c(C(F)F)cc2cnc(NC3CCN(S(C)(=O)=O)CC3)nc21 (2.5 µM)
inactive: MAPK1 = 0 | MAPK4 = 0 | MAPKAPK2 = 0 | MKNK1 = 0 | NTRK2 = 0 | NTRK3 = 0 | PAK4 = 0 | PBK 0 | PDGFRB 0 | PDK1 = 0 | PDPK1 = 0 | PIK4CA 0 | PIK4CB 0 | PLK1 = 0 | PRKAA1 = 0 | PRKCA 0 | PTK2 = 0 | PTK2B 0 | RAF1 = 0 | [1] 0

C[C@@H]1O[C@@H](O[C@H]2[C@H](Oc3cc(O)c4c(=O)cc(-c5ccc(O)cc5)oc4c3)O[C@H](CO)[C@@H](O)[C@@H]2O)[C@H](O)[C@H](O)[C@H]1O [Rhoifolin] (10 µM)
inactive: MAPK1 = 0 | MAPK4 = 0 | MAPKAPK2 = 0 | MKNK1 = 0 | NTRK2 = 0 | NTRK3 = 0 | PAK4 = 0 | PBK 0 | PDGFRB 0 | PDK1 = 0 | PDPK1 = 0 | PIK4CA 0 | PIK4CB 0 | PLK1 = 0 | PRKAA1 = 0 | PRKCA 0 | PTK2 = 0 | PTK2B 0 | RAF1 = 0 | [1] 0

C=C(CCC=C(C)C)[C@H]1CC[C@]2(C)[C@@H]1[C@H](O)C[C@@H]1[C@@]3(C)CC[C@H](O[C@@H]4O[C@H](CO)[C@@H](O)[C@H](O)[C@H]4O[C@@H]4O[C@H](CO)[C@@H](O)[C@H](O)[C@H]4O)C(C)(C)[C@@H]3CC[C@]12C [Ginsenoside Rk1] (10 µM)
inactive: MAPK1 = 0 | MAPK4 = 0 | MAPKAPK2 = 0 | MKNK1 = 0 | NTRK2 = 0 | NTRK3 = 0 | PAK4 = 0 | PBK 0 | PDGFRB 0 | PDK1 = 0 | PDPK1 = 0 | PIK4CA 0 | PIK4CB 0 | PLK1 = 0 | PRKAA1 = 0 | PRKCA 0 | PTK2 = 0 | PTK2B 0 | RAF1 = 0 | [1] 0

O=C(NC(NC(=S)Nc1ccc(F)c([N+](=O)[O-])c1)C(Cl)(Cl)Cl)C(c1ccccc1)c1ccccc1 (stereo not given) (10 µM)
inactive: MAPK1 = 0 | MAPK4 = 0 | MAPKAPK2 = 0 | MKNK1 = 0 | NTRK2 = 0 | NTRK3 = 0 | PAK4 = 0 | PBK 0 | PDGFRB 0 | PDK1 = 0 | PDPK1 = 0 | PIK4CA 0 | PIK4CB 0 | PLK1 = 0 | PRKAA1 = 0 | PRKCA 0 | PTK2 = 0 | PTK2B 0 | RAF1 = 0 | [1] 0
